Experimental data taken from publication PMC7364817.
These are yes or no findings as the source states them, for the method shown. Binding seen in cells or lysates may run through a third protein. A yes stands for co-enrichment or nearness to the bait. Other partners may have been found. Tags and fused reporters may be left off the sequences shown.

T1: FLAG-tagged SMCR8 (Smith-Magenis Syndrome Chromosome Region, Candidate 8) (UniProt Q8TEV9)
T1 sequence: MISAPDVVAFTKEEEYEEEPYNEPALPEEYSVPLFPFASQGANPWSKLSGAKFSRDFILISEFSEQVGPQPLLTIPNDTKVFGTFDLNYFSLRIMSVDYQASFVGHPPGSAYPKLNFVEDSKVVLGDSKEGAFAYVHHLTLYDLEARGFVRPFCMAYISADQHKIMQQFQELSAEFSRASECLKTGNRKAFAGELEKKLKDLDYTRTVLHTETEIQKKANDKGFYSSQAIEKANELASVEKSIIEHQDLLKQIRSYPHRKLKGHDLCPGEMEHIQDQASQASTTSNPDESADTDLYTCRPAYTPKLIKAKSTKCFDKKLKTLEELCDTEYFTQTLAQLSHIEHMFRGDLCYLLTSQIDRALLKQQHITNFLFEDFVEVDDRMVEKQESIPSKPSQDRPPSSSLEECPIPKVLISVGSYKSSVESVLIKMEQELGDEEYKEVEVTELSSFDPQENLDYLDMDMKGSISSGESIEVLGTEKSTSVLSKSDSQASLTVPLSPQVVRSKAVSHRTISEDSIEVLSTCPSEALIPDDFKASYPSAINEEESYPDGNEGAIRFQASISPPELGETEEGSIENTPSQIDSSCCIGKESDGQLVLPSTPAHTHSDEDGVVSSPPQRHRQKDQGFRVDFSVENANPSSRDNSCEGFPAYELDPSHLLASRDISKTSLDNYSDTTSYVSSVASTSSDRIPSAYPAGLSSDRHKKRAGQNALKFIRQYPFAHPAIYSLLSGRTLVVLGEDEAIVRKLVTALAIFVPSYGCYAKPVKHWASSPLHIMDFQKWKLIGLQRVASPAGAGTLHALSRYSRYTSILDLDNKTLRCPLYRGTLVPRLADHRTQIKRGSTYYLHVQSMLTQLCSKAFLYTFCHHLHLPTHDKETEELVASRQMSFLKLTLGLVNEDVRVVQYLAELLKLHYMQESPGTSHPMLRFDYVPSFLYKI

B1: ubiquitin specific peptidase 15 (protein, UniProt Q9Y4E8 1-981)
chain: MAEGGAADLDTQRSDIATLLKTSLRKGDTWYLVDSRWFKQWKKYVGFDSWDKYQMGDQNVYPGPIDNSGLLKDGDAQSLKEHLIDELDYILLPTEGWNKLVSWYTLMEGQEPIARKVVEQGMFVKHCKVEVYLTELKLCENGNMNNVVTRRFSKADTIDTIEKEIRKIFSIPDEKETRLWNKYMSNTFEPLNKPDSTIQDAGLYQGQVLVIEQKNEDGTWPRGPSTPKSPGASNFSTLPKISPSSLSNNYNNMNNRNVKNSNYCLPSYTAYKNYDYSEPGRNNEQPGLCGLSNLGNTCFMNSAIQCLSNTPPLTEYFLNDKYQEELNFDNPLGMRGEIAKSYAELIKQMWSGKFSYVTPRAFKTQVGRFAPQFSGYQQQDCQELLAFLLDGLHEDLNRIRKKPYIQLKDADGRPDKVVAEEAWENHLKRNDSIIVDIFHGLFKSTLVCPECAKISVTFDPFCYLTLPLPMKKERTLEVYLVRMDPLTKPMQYKVVVPKIGNILDLCTALSALSGIPADKMIVTDIYNHRFHRIFAMDENLSSIMERDDIYVFEININRTEDTEHVIIPVCLREKFRHSSYTHHTGSSLFGQPFLMAVPRNNTEDKLYNLLLLRMCRYVKISTETEETEGSLHCCKDQNINGNGPNGIHEEGSPSEMETDEPDDESSQDQELPSENENSQSEDSVGGDNDSENGLCTEDTCKGQLTGHKKRLFTFQFNNLGNTDINYIKDDTRHIRFDDRQLRLDERSFLALDWDPDLKKRYFDENAAEDFEKHESVEYKPPKKPFVKLKDCIELFTTKEKLGAEDPWYCPNCKEHQQATKKLDLWSLPPVLVVHLKRFSYSRYMRDKLDTLVDFPINDLDMSEFLINPNAGPCRYNLIAVSNHYGGMGGGHYTAFAKNKDDGKWYYFDDSSVSTASEDQIVSKAAYVLFYQRQDTFSGTGFFPLDRETKGASAATGIPLESDEDSNDNDNDIENENCMHTN
B2: nucleoporin 160 (protein, UniProt Q12769 1-1436)
chain: MLHLSAAPPAPPPEVTATARPCLCSVGRRGDGGKMAAAGALERSFVELSGAERERPRHFREFTVCSIGTANAVAGAVKYSESAGGFYYVESGKLFSVTRNRFIHWKTSGDTLELMEESLDINLLNNAIRLKFQNCSVLPGGVYVSETQNRVIILMLTNQTVHRLLLPHPSRMYRSELVVDSQMQSIFTDIGKVDFTDPCNYQLIPAVPGISPNSTASTAWLSSDGEALFALPCASGGIFVLKLPPYDIPGMVSVVELKQSSVMQRLLTGWMPTAIRGDQSPSDRPLSLAVHCVEHDAFIFALCQDHKLRMWSYKEQMCLMVADMLEYVPVKKDLRLTAGTGHKLRLAYSPTMGLYLGIYMHAPKRGQFCIFQLVSTESNRYSLDHISSLFTSQETLIDFALTSTDIWALWHDAENQTVVKYINFEHNVAGQWNPVFMQPLPEEEIVIRDDQDPREMYLQSLFTPGQFTNEALCKALQIFCRGTERNLDLSWSELKKEVTLAVENELQGSVTEYEFSQEEFRNLQQEFWCKFYACCLQYQEALSHPLALHLNPHTNMVCLLKKGYLSFLIPSSLVDHLYLLPYENLLTEDETTISDDVDIARDVICLIKCLRLIEESVTVDMSVIMEMSCYNLQSPEKAAEQILEDMITIDVENVMEDICSKLQEIRNPIHAIGLLIREMDYETEVEMEKGFNPAQPLNIRMNLTQLYGSNTAGYIVCRGVHKIASTRFLICRDLLILQQLLMRLGDAVIWGTGQLFQAQQDLLHRTAPLLLSYYLIKWGSECLATDVPLDTLESNLQHLSVLELTDSGALMANRFVSSPQTIVELFFQEVARKHIISHLFSQPKAPLSQTGLNWPEMITAITSYLLQLLWPSNPGCLFLECLMGNCQYVQLQDYIQLLHPWCQVNVGSCRFMLGRCYLVTGEGQKALECFCQAASEVGKEEFLDRLIRSEDGEIVSTPRLQYYDKVLRLLDVIGLPELVIQLATSAITEAGDDWKSQATLRTCIFKHHLDLGHNSQAYEALTQIPDSSRQLDCLRQLVVVLCERSQLQDLVEFPYVNLHNEVVGIIESRARAVDLMTHNYYELLYAFHIYRHNYRKAGTVMFEYGMRLGREVRTLRGLEKQGNCYLAALNCLRLIRPEYAWIVQPVSGAVYDRPGASPKRNHDGECTAAPTNRQIEILELEDLEKECSLARIRLTLAQHDPSAVAVAGSSSAEEMVTLLVQAGLFDTAISLCQTFKLPLTPVFEGLAFKCIKLQFGGEAAQAEAWAWLAANQLSSVITTKESSATDEAWRLLSTYLERYKVQNNLYHHCVINKLLSHGVPLPNWLINSYKKVDAAELLRLYLNYDLLEEAVDLVSEYVDAVLGKGHQYFGIEFPLSATAPMVWLPYSSIDQLLQALGENSANSHNIALSQKILDKLEDYQQKVDKATRDLLYRRTL
B3: THO complex 3 (protein, UniProt Q96J01 1-351)
chain: MAVPAAAMGPSALGQSGPGSMAPWCSVSSGPSRYVLGMQELFRGHSKTREFLAHSAKVHSVAWSCDGRRLASGSFDKTASVFLLEKDRLVKENNYRGHGDSVDQLCWHPSNPDLFVTASGDKTIRIWDVRTTKCIATVNTKGENINICWSPDGQTIAVGNKDDVVTFIDAKTHRSKAEEQFKFEVNEISWNNDNNMFFLTNGNGCINILSYPELKPVQSINAHPSNCICIKFDPMGKYFATGSADALVSLWDVDELVCVRCFSRLDWPVRTLSFSHDGKMLASASEDHFIDIAEVETGDKLWEVQCESPTFTVAWHPKRPLLAFACDDKDGKYDSSREAGTVKLFGLPNDS
B4: exportin for tRNA (protein, UniProt O43592 1-962)
chain: MDEQALLGLNPNADSDFRQRALAYFEQLKISPDAWQVCAEALAQRTYSDDHVKFFCFQVLEHQVKYKYSELTTVQQQLIRETLISWLQAQMLNPQPEKTFIRNKAAQVFALLFVTEYLTKWPKFFFDILSVVDLNPRGVDLYLRILMAIDSELVDRDVVHTSEEARRNTLIKDTMREQCIPNLVESWYQILQNYQFTNSEVTCQCLEVVGAYVSWIDLSLIANDRFINMLLGHMSIEVLREEACDCLFEVVNKGMDPVDKMKLVESLCQVLQSAGFFSIDQEEDVDFLARFSKLVNGMGQSLIVSWSKLIKNGDIKNAQEALQAIETKVALMLQLLIHEDDDISSNIIGFCYDYLHILKQLTVLSDQQKANVEAIMLAVMKKLTYDEEYNFENEGEDEAMFVEYRKQLKLLLDRLAQVSPELLLASVRRVFSSTLQNWQTTRFMEVEVAIRLLYMLAEALPVSHGAHFSGDVSKASALQDMMRTLVTSGVSSYQHTSVTLEFFETVVRYEKFFTVEPQHIPCVLMAFLDHRGLRHSSAKVRSRTAYLFSRFVKSLNKQMNPFIEDILNRIQDLLELSPPENGHQSLLSSDDQLFIYETAGVLIVNSEYPAERKQALMRNLLTPLMEKFKILLEKLMLAQDEERQASLADCLNHAVGFASRTSKAFSNKQTVKQCGCSEVYLDCLQTFLPALSCPLQKDILRSGVRTFLHRMIICLEEEVLPFIPSASEHMLKDCEAKDLQEFIPLINQITAKFKIQVSPFLQQMFMPLLHAIFEVLLRPAEENDQSAALEKQMLRRSYFAFLQTVTGSGMSEVIANQGAENVERVLVTVIQGAVEYPDPIAQKTCFIILSKLVELWGGKDGPVGFADFVYKHIVPACFLAPLKQTFDLADAQTVLALSECAVTLKTIHLKRGPECVQYLQQEYLPSLQVAPEIIQEFCQALQQPDAKVFKNYLKVFFQRAKP
B5: nucleoporin 155 (protein, UniProt O75694 1-1391)
chain: MPSSLLGAAMPASTSAAALQEALENAGRLIDRQLQEDRMYPDLSELLMVSAPNNPTVSGMSDMDYPLQGPGLLSVPNLPEISSIRRVPLPPELVEQFGHMQCNCMMGVFPPISRAWLTIDSDIFMWNYEDGGDLAYFDGLSETILAVGLVKPKAGIFQPHVRHLLVLATPVDIVILGLSYANLQTGSGVLNDSLSGGMQLLPDPLYSLPTDNTYLLTITSTDNGRIFLAGKDGCLYEVAYQAEAGWFSQRCRKINHSKSSLSFLVPSLLQFTFSEDDPILQIAIDNSRNILYTRSEKGVIQVYDLGQDGQGMSRVASVSQNAIVSAAGNIARTIDRSVFKPIVQIAVIENSESLDCQLLAVTHAGVRLYFSTCPFRQPLARPNTLTLVHVRLPPGFSASSTVEKPSKVHRALYSKGILLMAASENEDNDILWCVNHDTFPFQKPMMETQMTAGVDGHSWALSAIDELKVDKIITPLNKDHIPITDSPVVVQQHMLPPKKFVLLSAQGSLMFHKLRPVDQLRHLLVSNVGGDGEEIERFFKLHQEDQACATCLILACSTAACDREVSAWATRAFFRYGGEAQMRFPTTLPPPSNVGPILGSPVYSSSPVPSGSPYPNPSFLGTPSHGIQPPAMSTPVCALGNPATQATNMSCVTGPEIVYSGKHNGICIYFSRIMGNIWDASLVVERIFKSGNREITAIESSVPCQLLESVLQELKGLQEFLDRNSQFAGGPLGNPNTTAKVQQRLIGFMRPENGNPQQMQQELQRKFHEAQLSEKISLQAIQQLVRKSYQALALWKLLCEHQFTIIVAELQKELQEQLKITTFKDLVIRDKELTGALIASLINCYIRDNAAVDGISLHLQDICPLLYSTDDAICSKANELLQRSRQVQNKTEKERMLRESLKEYQKISNQVDLSNVCAQYRQVRFYEGVVELSLTAAEKKDPQGLGLHFYKHGEPEEDIVGLQAFQERLNSYKCITDTLQELVNQSKAAPQSPSVPKKPGPPVLSSDPNMLSNEEAGHHFEQMLKLSQRSKDELFSIALYNWLIQVDLADKLLQVASPFLEPHLVRMAKVDQNRVRYMDLLWRYYEKNRSFSNAARVLSRLADMHSTEISLQQRLEYIARAILSAKSSTAISSIAADGEFLHELEEKMEVARIQLQIQETLQRQYSHHSSVQDAVSQLDSELMDITKLYGEFADPFKLAECKLAIIHCAGYSDPILVQTLWQDIIEKELSDSVTLSSSDRMHALSLKIVLLGKIYAGTPRFFPLDFIVQFLEQQVCTLNWDVGFVIQTMNEIGVPLPRLLEVYDQLFKSRDPFWNRMKKPLHLLDCIHVLLIRYVENPSQVLNCERRRFTNLCLDAVCGYLVELQSMSSSVAVQAITGNFKSLQAKLERLH

target: T1, FLAG-tagged SMCR8 (Smith-Magenis Syndrome Chromosome Region, Candidate 8); test: affinity purification with mass spectrometry; FL-SMCR8, C9orf72-FL or empty vector transfected in HEK 293T; α-FLAG agarose IP from whole cell lysates with or without RNase; LC-MS/MS; hits with three or more spectra and not detected in vector only control

binding, binds:
B1
B2
B3
B4
B5
